Data on 1 substance can be found in article PMC11551741 (Nucleic Acids Research, 2024).

Results are given in words; binding and its absence hold for the method and conditions named.

The target in the assay is T1, SLF1^tBRCT (tandem BRCT domain of SLF1, residues 6-208) (human) (UniProt Q9BQI6).
T1 sequence: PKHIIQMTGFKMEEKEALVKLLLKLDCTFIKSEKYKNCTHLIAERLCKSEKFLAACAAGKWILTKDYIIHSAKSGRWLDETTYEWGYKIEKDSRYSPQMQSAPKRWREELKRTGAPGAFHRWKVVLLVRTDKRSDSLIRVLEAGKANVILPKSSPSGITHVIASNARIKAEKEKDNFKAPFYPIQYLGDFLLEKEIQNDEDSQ
As to the kind of experiment: SEC; SLF1^ARD and SLF1^tBRCT 2:1 molar ratio, 20 and 10 μM; on ice 60 mins; 20 mM Tris pH 8.0, 150 mM NaCl; fractions on Coomassie gels; both purified. (In general: In gel filtration, larger molecules generally elute earlier.)

“SLF1^ARD (ankyrin repeat domain of SLF1, residues 802-934), His-tag cleaved (from UniProt Q9BQI6 802-934) (domain or fragment)”: the binding result was “no binding (tested: 20 and 10 μM)”.
